Source: patent US20230398228A1, “ERIBULIN-BASED ANTIBODY-DRUG CONJUGATES AND METHODS OF USE” (EISAI R&D MANAGEMENT CO., LTD., priority 2016, published 2023)

Experiments:
[1] = Fluorometric free thiol quantitation of partially reduced MORAb-003
[2] = DAR analysis by LC-MS (UPLC/ESI-MS, reverse-phase LC-MS); details: maleimido-PEG2-biotin conjugation
Method: ADCs were deglycosylated using PNGase F (New England BioLabs). G7 buffer (10 μL) and PNGase F (2 μL) were added to the mAb (90 μL, 1 mg/mL in DPBS). The reaction was incubated in a Discover microwave (CEM) for 2 cycles: (1) microwave power 10 W, 37° C., 10 min, followed by a 5-min pause; (2) microwave power 2 W, 37° C., 10 min. A portion of the sample was reduced by adding DTT to a final concentration of 20 mM, followed by incubation at 60° C. for 3 min. Samples were then analyzed using a Waters Acquity Ultra Performance Liquid Chromatography (UPLC) and quadrupole time of flight (Q-Tof) Premier mass spectrometer. Samples (0.5-2 μg each) were injected onto a MassPrep™ micro desalting column at 65° C., eluted from the column with a 5 min equilibration in 95% of mobile phase A, a 10 min gradient (5-90% B), and a 10 min re-equilibration in 95% of mobile phase A, at 0.05 mL/min. Mobile phase A was 0.1% formic acid in water. Mobile phase B was 0.1% formic acid in acetonitrile. The Q-Tof mass spectrometer was run in positive ion, V-mode with detection in the range of 500-4000 m/z. The source parameters were as follows: capillary voltage, 2.25 kV (intact antibody)-2.50 kV (reduced antibody); sampling cone voltage, 65.0 V (intact antibody) or 50.0 V (reduced antibody); source temperature, 100° C.; desolvation temperature, 250° C.; desolvation gas flow, 550 L/hr. The protein peak was deconvoluted using the MassLynx® MaxEnt 1 function. Relative intensities of each unconjugated, singly-conjugated, and multiply-conjugated heavy and light chain masses were combined to calculate the overall DAR using the formula:
2[[ILC+1+2(ILC+2)+3(ILC+3)+ . . . n(ILC+n)]/ΣILCtot]+2[[IHC+1+2(IHC+2)+3(IHC+3)+ . . . n(IHC+n)]/ΣIHCtot]
where ILC+1 is mass intensity of light chain conjugated with one cytotoxin, ILC+2 is mass intensity of light chain conjugated with two cytotoxins, etc. IHC are the intensities from the corresponding conjugated heavy chains, and ΣILCtot and ΣIHCtot are the combined intensities of all unconjugated and conjugated light chains and heavy chains, respectively.
DAR was also analyzed using an LC-MS method with a Waters Alliance HPLC with SQD/PDA detection. Samples were injected onto a Proteomix RP-1000 column ([…], 1000A, 4.6 mm×15 cm, Sepax) at 65° C., and eluted with a 3 min equilibration in 25% B, a 27 min linear gradient from 25%-55% B, a 5 min hold at 55% B, a 1 min change to 90% B, a 5 min hold at 90% B, a 1 min change back to 25% B, and a 5 min reequilibration at 25% B. Mobile phase A was 0.1% TFA in water, and mobile phase B was 0.1% TFA in acetonitrile. The elute was then split (10:1) into PDA and SQD detectors. The SQD detector was set up as ES positive, capillary voltage at 3.2 kV, cone voltage at 40 V, extractor at 3 V, and RF lens at 0.2 V, source temperature at 150° C., and desolvation temperature at 250° C. Mass data was acquired at 200-2000 m/z for 40 min, continuum mode, scan time 1 second. Data was analyzed and deconvoluted offline using MassLynx and MaxEnt1. DAR was calculated using the formula:
2[[AUCLC+1+2(AUCLC+2)+3(AUCLC+3)+ . . . n(AUCLC+n)]/[…]]+2[[AUCHC+1+2(AUCHC+2)+3(AUCHC+3)+ . . . n(AUCHC+n)]/ΣAUCHCtot]
where AUCLC+1 is the area under the curve of the light chain peak conjugated with one cytotoxin, AUCLC+2 is the area under the curve of the light chain peak conjugated with two cytotoxins, etc. AUCHC is the area under the curve of the corresponding heavy chains, and ΣAUCLCtot and ΣAUCHCtot are the combined area under the curve of all unconjugated and conjugated light chains and heavy chains, respectively.

[3] = MORAb-003 10 μM (1.5 mg/ml), TCEP 20 μM, 10 min
[4] = MORAb-003 10 μM (1.5 mg/ml), TCEP 20 μM, 30 min
[5] = MORAb-003 10 μM (1.5 mg/ml), TCEP 20 μM, 60 min
[6] = MORAb-003 10 μM (1.5 mg/ml), TCEP 20 μM, 120 min
[7] = MORAb-003 10 μM (1.5 mg/ml), TCEP 40 μM, 10 min
[8] = MORAb-003 10 μM (1.5 mg/ml), TCEP 40 μM, 30 min
[9] = MORAb-003 10 μM (1.5 mg/ml), TCEP 40 μM, 60 min
[10] = MORAb-003 10 μM (1.5 mg/ml), TCEP 40 μM, 120 min
[11] = MORAb-003 35.3 μM (5.3 mg/ml), TCEP 70.6 μM, 10 min
[12] = MORAb-003 35.3 μM (5.3 mg/ml), TCEP 70.6 μM, 30 min
[13] = MORAb-003 35.3 μM (5.3 mg/ml), TCEP 70.6 μM, 60 min
[14] = MORAb-003 35.3 μM (5.3 mg/ml), TCEP 70.6 μM, 120 min
[15] = MORAb-003 35.3 μM (5.3 mg/ml), TCEP 141.2 μM, 10 min
[16] = MORAb-003 35.3 μM (5.3 mg/ml), TCEP 141.2 μM, 30 min
[17] = MORAb-003 35.3 μM (5.3 mg/ml), TCEP 141.2 μM, 60 min
[18] = MORAb-003 35.3 μM (5.3 mg/ml), TCEP 141.2 μM, 120 min

MORAb-003: humanized anti-human folate receptor alpha antibody (USAN name: farletuzumab)
Disulfide bonds reduced per MAb [1, 3]: 0.7 per MAb
Free thiol [1, 3]: 13.3 µM
Disulfide bonds reduced per MAb [1, 4]: 0.7 per MAb
Free thiol [1, 4]: 14.7 µM
Disulfide bonds reduced per MAb [1, 5]: 0.8 per MAb
Free thiol [1, 5]: 15.2 µM
Disulfide bonds reduced per MAb [1, 6]: 0.7 per MAb
Free thiol [1, 6]: 14.6 µM
Disulfide bonds reduced per MAb [1, 7]: 1.1 per MAb
Free thiol [1, 7]: 21.8 µM
Disulfide bonds reduced per MAb [1, 8]: 1.3 per MAb
Free thiol [1, 8]: 25.6 µM
Disulfide bonds reduced per MAb [1, 9]: 1.3 per MAb
Free thiol [1, 9]: 26.9 µM
Disulfide bonds reduced per MAb [1, 10]: 1.4 per MAb
Free thiol [1, 10]: 27.4 µM
Disulfide bonds reduced per MAb [1, 11]: 3.0 per MAb
Free thiol [1, 11]: 215 µM
Disulfide bonds reduced per MAb [1, 12]: 3.5 per MAb
Free thiol [1, 12]: 247.5 µM
Disulfide bonds reduced per MAb [1, 13]: 4.2 per MAb
Free thiol [1, 13]: 297.6 µM
Disulfide bonds reduced per MAb [1, 14]: 3.8 per MAb
Free thiol [1, 14]: 266.8 µM
Disulfide bonds reduced per MAb [1, 15]: 4.8 per MAb
Free thiol [1, 15]: 339 µM
Disulfide bonds reduced per MAb [1, 16]: 5.3 per MAb
Free thiol [1, 16]: 372.8 µM
Disulfide bonds reduced per MAb [1, 17]: 5.4 per MAb
Free thiol [1, 17]: 384.2 µM
Disulfide bonds reduced per MAb [1, 18]: 6.8 per MAb
Free thiol [1, 18]: 479.8 µM
HC (heavy chain biotin level) ([2]; TCEP:mAb 1, TCEP 33.3 μM): 0.34
LC (light chain biotin level) ([2]; TCEP:mAb 1, TCEP 33.3 μM): 0.29
HC (heavy chain biotin level) ([2]; TCEP:mAb 2, TCEP 66.7 μM): 0.83
LC (light chain biotin level) ([2]; TCEP:mAb 2, TCEP 66.7 μM): 0.48
HC (heavy chain biotin level) ([2]; TCEP:mAb 3, TCEP 100 μM): 1.21
LC (light chain biotin level) ([2]; TCEP:mAb 3, TCEP 100 μM): 0.63
HC (heavy chain biotin level) ([2]; TCEP:mAb 4, TCEP 133.2 μM): 1.70
LC (light chain biotin level) ([2]; TCEP:mAb 4, TCEP 133.2 μM): 0.73
